According to paper PMC9797736:
No constants are given. Whether binding was seen depends on the method and setting. In cells and extracts the contact can be indirect. Some binding calls cover weakened binding; strength is not graded here.

Amino acid sequences for entries named in this document (tags omitted).
UniProt Q5NPS6: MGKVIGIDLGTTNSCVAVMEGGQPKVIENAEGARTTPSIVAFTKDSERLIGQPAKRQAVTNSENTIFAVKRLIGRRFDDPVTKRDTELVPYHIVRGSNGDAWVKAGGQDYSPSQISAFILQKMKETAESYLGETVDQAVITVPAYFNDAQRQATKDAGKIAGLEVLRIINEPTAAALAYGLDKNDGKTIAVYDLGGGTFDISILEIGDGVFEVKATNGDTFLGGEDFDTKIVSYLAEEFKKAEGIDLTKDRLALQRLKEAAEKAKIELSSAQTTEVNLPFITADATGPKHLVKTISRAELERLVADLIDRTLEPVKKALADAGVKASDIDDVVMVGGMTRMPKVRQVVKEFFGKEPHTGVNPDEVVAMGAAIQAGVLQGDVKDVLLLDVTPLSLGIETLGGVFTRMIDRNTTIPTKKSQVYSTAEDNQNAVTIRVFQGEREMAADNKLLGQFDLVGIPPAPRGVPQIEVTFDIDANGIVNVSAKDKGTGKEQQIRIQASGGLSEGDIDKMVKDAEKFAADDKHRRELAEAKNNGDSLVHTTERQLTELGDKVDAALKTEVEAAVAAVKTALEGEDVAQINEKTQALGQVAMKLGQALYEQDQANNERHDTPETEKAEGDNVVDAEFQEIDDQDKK

Columns and labels:
[1] = target: T1, Chaperone protein DnaJ (Z. mobilis) (UniProt Q5NPS5); experiment: split reporter; YESS (TEV protease mediated Yeast Endoplasmic Reticulum Sequestration Screening): the two proteins linked with N-TEV and C-TEV, co-expressed from pESE in S. cerevisiae EBY100, induced at 30°C for 8 h; cells stained with anti-HA-FITC and/or anti-FLAG-iFlor647 and read by flow cytometry; D-value = difference of mono fluorescence signal between sample and control pESE; D-value >0 means interaction
T1 sequence: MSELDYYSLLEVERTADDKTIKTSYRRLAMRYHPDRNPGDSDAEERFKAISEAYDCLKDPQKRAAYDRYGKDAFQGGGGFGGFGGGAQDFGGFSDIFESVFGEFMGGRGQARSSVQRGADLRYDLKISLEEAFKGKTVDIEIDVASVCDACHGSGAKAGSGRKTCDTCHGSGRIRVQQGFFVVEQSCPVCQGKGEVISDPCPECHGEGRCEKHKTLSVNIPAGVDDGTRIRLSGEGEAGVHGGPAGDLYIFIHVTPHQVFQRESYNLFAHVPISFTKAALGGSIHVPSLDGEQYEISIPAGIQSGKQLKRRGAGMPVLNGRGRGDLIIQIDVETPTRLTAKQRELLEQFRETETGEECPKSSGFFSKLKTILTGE

[2] = target: Chaperone protein DnaK (Z. mobilis) (UniProt Q5NPS6); experiment: as above

B1: Hfq (protein, UniProt Q5NQN3 1-161)
chain: MAEKVNNLQDFFLNTLRKTRTPVTMFLVKGVKLQGVITWFDNFSILLRRDGQSQLVYKHAISTIIPAHPLEQLRESRSLMAERKSSLLQDVFLSAIMQQQEPVTMFLINGVMLQGEIAAFDLFCVLLTRNDDAQLVYKHAVSTVQPVKSVDLTMTERRDED
- binding [1]: binds weakly
- binding [2]: binds weakly
